Results are given in words; binding and its absence hold for the method and conditions named. A result given as binding can be weak or reduced; the word gives no strength.
Tests used:
[1] = target: T1, polypeptide …; test: far-Western, overlay or dot blot; serially diluted peptide blotted onto PVDF, soaked in ORF55 protein solution, detected with anti-MBP-tag antibody and HRP secondary antibody; both purified
T1 sequence (peptide): LSPGANSHVSRH

[2] = target: MBP-tagged recombinant ORF55 protein of cyprinid herpesvirus 2 (CyHV-2) strain YC-01 (Cyprinid herpesvirus 2 (CyHV-2), strain YC-01); test: phage display panning; MBP-ORF55 coated in a 12-well plate (100, 90, 85 ug/mL in rounds 1-3); Ph.D.-12 library; Tween-20 0.1-0.5%; 50 plaques sequenced after the third round; only the target purified

Molecule | binding [1] | binding [2]
MBP-tagged recombinant ORF55 protein of cyprinid herpesvirus 2 (CyHV-2) strain YC-01 | binds | –
LSPGANSHVSRH [phage-displayed polypeptide … (Ph.D.-12 library clone)] | – | binds

Source: PMC10091560
